From paper PMC8386835 come the findings set out here.

This assay addresses T1, MTL5 (Metallothionein-like 5) (mouse (endogenous in spermatocytes)) (UniProt Q9WTJ6).
T1 sequence: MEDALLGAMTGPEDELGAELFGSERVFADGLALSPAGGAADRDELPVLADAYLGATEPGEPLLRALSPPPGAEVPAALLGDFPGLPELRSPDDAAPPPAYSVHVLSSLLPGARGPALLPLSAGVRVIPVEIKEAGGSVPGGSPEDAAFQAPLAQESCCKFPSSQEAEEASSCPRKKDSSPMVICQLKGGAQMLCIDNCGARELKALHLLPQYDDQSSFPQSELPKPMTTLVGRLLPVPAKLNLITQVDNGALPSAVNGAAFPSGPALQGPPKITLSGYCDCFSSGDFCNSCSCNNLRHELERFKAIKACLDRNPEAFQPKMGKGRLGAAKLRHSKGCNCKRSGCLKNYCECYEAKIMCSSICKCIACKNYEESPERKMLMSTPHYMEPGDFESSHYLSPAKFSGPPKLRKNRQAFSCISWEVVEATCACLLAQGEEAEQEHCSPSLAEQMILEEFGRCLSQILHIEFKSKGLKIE
In words: affinity purification with mass spectrometry; immunoprecipitation with anti-MTL5 C-terminal antibody (epitope 221-475) and Protein A/G agarose from pachytene and diplotene spermatocytes of 10-week-old wild-type mice, RIPA buffer, overnight at 4°C; rabbit IgG and knockout as controls.

No constants are given. Whether binding was seen depends on the method and setting. In cells and extracts the contact can be indirect. Here binding means that the protein was enriched with, or labelled near, the bait; the list need not be complete. A no says only that the protein was not detected with the bait.

B1: LIN54 (protein, UniProt Q571G4 1-749)
chain: MEVVPAEVNSLLPDDIMDTAITLVDEDSIEAVIVSSPIPMETELEEIVNINSTGDSTATPISTEPITVYSNHTNQVAVNTTVSKADSNTTVKPAFPSGLQKLGAQTPVTISANQIILNKVSQTSDLKLGNQTLKPDGQKLILTTLGKSGSPIVLALPHSQLPQAQKVTAQAQPGDAKLPPQQIKVVTIGGRPEVKPVIGVSALTPGSQLINTTTQPSVLQTQQLKTVQIAKKPRTPTSGPVITKLIFAKPINSKAVTGQTTQASPPVVTGRVLSQSTPGTPSKTITISESGVIGSTLNSTTQTPNKIAISPLKSPNKTVKSAVQTITVGGMSTSQFKTIIPLATAPNVQQIQVPGSKFHYVRLVTATTASSSAQPVSQSPSVNTQPLQQAKPVVVNTTPVRMSVPFVQAQAVKQVVPKPINSTSQIVTTSQPQQRLIMPATPLPQIQPNLTNLPPGTVLAPAPGTGNVGYAVLPAQYVTQLQQSSYVSIASNSNFTGTSGIQTQARLPFNGIIPSESTSRPRKPCNCTKSLCLKLYCDCFANGEFCNNCNCTNCYNNLEHENERQKAIKACLDRNPEAFKPKIGKGKEGESDRRHSKGCNCKRSGCLKNYCECYEAKIMCSSICKCIGCKNFEESPERKTLMHLADAAEVRVQQQTAAKTKLSSQISDLLTRPTPALNSAGGKLPFTFVTKEVAEATCNCLLAQAEQADKKGKSKAAAERMILEEFGRCLMSVINSAGKAKSDPCAMHC
As to B1, the binding entry was “no binding”.
